Data: article PMC11290356
No constants are given. Whether binding was seen depends on the method and setting. Binding seen in cells or lysates may run through a third protein. Some results given as binding are weak or reduced against the parent protein; the word gives no strength.

By UniProt entry, the sequences of proteins in these tests, tags left out.
UniProt Q9NR19: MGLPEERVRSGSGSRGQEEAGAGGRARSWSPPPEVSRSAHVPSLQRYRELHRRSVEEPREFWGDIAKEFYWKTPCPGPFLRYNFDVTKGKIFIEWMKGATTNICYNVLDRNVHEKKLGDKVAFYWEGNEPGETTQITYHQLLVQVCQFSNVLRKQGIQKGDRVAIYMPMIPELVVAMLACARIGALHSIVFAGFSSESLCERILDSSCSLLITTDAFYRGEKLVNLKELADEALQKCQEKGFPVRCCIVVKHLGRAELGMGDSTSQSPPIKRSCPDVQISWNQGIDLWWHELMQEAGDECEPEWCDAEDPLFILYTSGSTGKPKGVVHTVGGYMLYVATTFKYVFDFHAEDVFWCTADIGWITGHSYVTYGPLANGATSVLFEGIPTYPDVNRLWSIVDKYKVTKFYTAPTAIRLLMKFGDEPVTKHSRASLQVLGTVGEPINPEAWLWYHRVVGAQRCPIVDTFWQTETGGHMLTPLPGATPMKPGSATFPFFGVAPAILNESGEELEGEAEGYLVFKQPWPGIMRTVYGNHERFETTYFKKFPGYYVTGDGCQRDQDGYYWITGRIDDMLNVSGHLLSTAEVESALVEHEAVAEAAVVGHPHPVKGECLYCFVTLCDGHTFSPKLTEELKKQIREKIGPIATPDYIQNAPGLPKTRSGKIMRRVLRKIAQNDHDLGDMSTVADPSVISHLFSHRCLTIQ

Target: acetyl-coenzyme A (CoA) synthetase 2 (ACSS2) (human (endogenous in A375)) (UniProt Q9NR19)
Test: co-IP; anti-ACSS2 antibody (IgG as control) on SureBeads Protein A magnetic beads; A375 whole-cell lysate and lysate of isolated nuclei, 1x RIPA buffer, overnight at 4°C, washed 3 times with 0.1% TBST; Western blot

binding: binds
B1: aldehyde dehydrogenase 1A3 (ALDH1A3) (enzyme, UniProt P47895 1-512)
chain: MATANGAVENGQPDRKPPALPRPIRNLEVKFTKIFINNEWHESKSGKKFATCNPSTREQICEVEEGDKPDVDKAVEAAQVAFQRGSPWRRLDALSRGRLLHQLADLVERDRATLAALETMDTGKPFLHAFFIDLEGCIRTLRYFAGWADKIQGKTIPTDDNVVCFTRHEPIGVCGAITPWNFPLLMLVWKLAPALCCGNTMVLKPAEQTPLTALYLGSLIKEAGFPPGVVNIVPGFGPTVGAAISSHPQINKIAFTGSTEVGKLVKEAASRSNLKRVTLELGGKNPCIVCADADLDLAVECAHQGVFFNQGQCCTAASRVFVEEQVYSEFVRRSVEYAKKRPVGDPFDVKTEQGPQIDQKQFDKILELIESGKKEGAKLECGGSAMEDKGLFIKPTVFSEVTDNMRIAKEEIFGPVQPILKFKSIEEVIKRANSTDYGLTAAVFTKNLDKALKLASALESGTVWINCYNALYAQAPFGGFKMSGNGRELGEYALAEYTEVKTVTIKLGDKNP
